Assay results published in patent US7399638B2, “Prediction method for lipidosis” (Takeda Pharmaceutical Company Limited, priority 2003, dated 2008).
Like-named read-outs stand apart in the source and are kept apart here. Marks after values point to notes of the source that are not given here.

Legend:
Crj: CD(SD)IGS rats [1] = assay: Urinary PAG/hippuric acid ratio by 1H NMR in rats; settings: rat urine, 3 days, mean n = 3-4
[2] = in vivo; cited from earlier work
Crj: CD(SD)IGS rats [3] = settings: male, rat, in vivo, 3 days
Experimental: The following 10 kinds of commercially available drugs were examined as the test compounds for a potential of inducing PLsis by histopathological examination and peripheral blood lymphocyte testing.
The following experiments were performed using the prematurely autopsied animals.
The high-dose dosing suspension was diluted about 3 fold and 10 fold with dispersant/solvent to prepare intermediate- and low-dose dosing suspensions. […] [For LD50, the Summary Basis of Approval (FDA) for each drug was referenced to.]
The animals were examined for mortality, general conditions, body weight, food consumption and the like using PM4800 (Mettler) and EB3200D (Shimadzu Corporation).
Hematological examination was performed for parameters such as RBC count, hematocrit, hemoglobin concentration, mean corpuscular hemoglobin (MCH), mean corpuscular hemoglobin concentration (MCHC), mean corpuscular volume (MCV), platelet count, WBC count, reticulocyte count, differential WBC, and vacuolated lymphocyte ratio (for PLsis-inducing compounds only) using ADVIA120 (Bayer Medical Ltd.) and E-4000 (Sysmex Corporation).

Crj: CD(SD)IGS rats [4] = settings: rat urine, LC-MS/MS, 300 mg/kg/day by gavage for 7 days
male cynomolgus monkeys [5] = assay: Urinary PAGN/hippuric acid ratio by 1H NMR in monkeys; format: in vivo, cynomolgus monkey; settings: for PAGN/hippuric acid ratio compared to the control group: cynomolgus monkey urine, gavage 7 days; for Urinary PAGN/hippuric acid ratio: male cynomolgus monkey
Experimental: (§1) Subsequently, the animals were allocated to four groups (5 animals in total) comprising 2 animals in the control group and 1 male in each treatment group, respectively.
(§2) The high-dose dosing suspension was diluted with the dispersant/solvent to prepare a low-dose dosing suspension.
Pooled urine was collected from the monkeys in the Example above under fasting for about 6 hours in the pre-dosing period (Pre), on the first day of administration (Day 0), and on days 2 and 6 of treatment period (Days 2 and 6).
^1H NMR was performed as described below. Reagents were used without purification. Heavy water (D2O) was purchased from ISOTEC. […] INC (USA).
A phosphate buffer solution was prepared as described below.
Operating conditions were set as shown below.

male cynomolgus monkeys [6] = settings: cynomolgus monkey, in vivo, 300 mg/kg
Experimental: Amiodarone and perhexiline were purchased from SIGMA Company.
as §1, §2
After completion of the administration, livers, kidneys, hearts, spleens, lungs, mesenteric lymph nodes, eyeballs, testes and brains were collected from all animals, and examined for histopathological changes by conventional method of optical microscopy. Additionally, blood samples were collected in the pre-dosing period, on the first day of administration, and on days 2 and 6 of treatment period, blood smear specimens were prepared, and vacuolated lymphocyte ratios were determined.

CCCCc1oc2ccccc2c1C(=O)c1cc(I)c(OCCN(CC)CC)c(I)c1 [Amiodarone]
PAG + hippuric acid/creatinine (Crj: CD(SD)IGS rats [1]; 100 mg/kg/day by gavage): 1.69
PAG/PAG + hippuric acid (Crj: CD(SD)IGS rats [1]; 100 mg/kg/day by gavage): 13.68%
PAG/creatinine (first term of PAG + hippuric acid) (Crj: CD(SD)IGS rats [1]; 100 mg/kg/day by gavage): 0.23
PAG/hippuric acid (Crj: CD(SD)IGS rats [1]; 100 mg/kg/day by gavage): 16.12%
PAG + hippuric acid/creatinine (Crj: CD(SD)IGS rats [1]; 300 mg/kg/day by gavage): 1.56
PAG/PAG + hippuric acid (Crj: CD(SD)IGS rats [1]; 300 mg/kg/day by gavage): 33.94* %
PAG/creatinine (first term of PAG + hippuric acid) (Crj: CD(SD)IGS rats [1]; 300 mg/kg/day by gavage): 0.53
PAG/hippuric acid (Crj: CD(SD)IGS rats [1]; 300 mg/kg/day by gavage): 52.41* %
hippuric acid/creatinine (second term of PAG + hippuric acid) (Crj: CD(SD)IGS rats [1]; 300 mg/kg/day by gavage): 1.04
PAG + hippuric acid/creatinine (Crj: CD(SD)IGS rats [1]; 1000 mg/kg/day by gavage): 1.32
PAG/PAG + hippuric acid (Crj: CD(SD)IGS rats [1]; 1000 mg/kg/day by gavage): 53.66* %
PAG/creatinine (first term of PAG + hippuric acid) (Crj: CD(SD)IGS rats [1]; 1000 mg/kg/day by gavage): 0.71
PAG/hippuric acid (Crj: CD(SD)IGS rats [1]; 1000 mg/kg/day by gavage): 127.48* %
hippuric acid/creatinine (second term of PAG + hippuric acid) (Crj: CD(SD)IGS rats [1]; 1000 mg/kg/day by gavage): 0.60
LD50 [2]: not less than 3000 mg/kg
Mean vacuolated lymphocyte ratio (Crj: CD(SD)IGS rats [3]; 100 mg/kg/day): 1%
Mean vacuolated lymphocyte ratio (Crj: CD(SD)IGS rats [3]; 300 mg/kg/day): 33%
Mean vacuolated lymphocyte ratio (Crj: CD(SD)IGS rats [3]; 1000 mg/kg/day): 40%
PAG/hippuric acid concentration ratio compared to the control group (Crj: CD(SD)IGS rats [4]): increased
PAG/hippuric acid ratio (Crj: CD(SD)IGS rats [4]; mean ± SD n = 4): 0.8850 ± 0.4434
PAGN/hippuric acid ratio compared to the control group (male cynomolgus monkeys [5]; 60 mg/kg): no significant difference
PAGN/hippuric acid ratio compared to the control group (male cynomolgus monkeys [5]; 300 mg/kg): increased
Urinary PAGN/hippuric acid ratio (male cynomolgus monkeys [5]; 60 mg/kg/day by gavage for 7 days, Day 0, 1 animal): 1.87
Urinary PAGN/hippuric acid ratio (male cynomolgus monkeys [5]; 60 mg/kg/day by gavage for 7 days, Day 2, 1 animal): 1.79
Urinary PAGN/hippuric acid ratio (male cynomolgus monkeys [5]; 60 mg/kg/day by gavage for 7 days, Day 6, 1 animal): 3.87
Urinary PAGN/hippuric acid ratio (male cynomolgus monkeys [5]; 60 mg/kg/day by gavage for 7 days, Pre (pre-dosing period), 1 animal): 1.05
Urinary PAGN/hippuric acid ratio (male cynomolgus monkeys [5]; 300 mg/kg/day by gavage for 7 days, Day 0, 1 animal): 1.11
Urinary PAGN/hippuric acid ratio (male cynomolgus monkeys [5]; 300 mg/kg/day by gavage for 7 days, Day 2, 1 animal): 3.04
Urinary PAGN/hippuric acid ratio (male cynomolgus monkeys [5]; 300 mg/kg/day by gavage for 7 days, Day 6, 1 animal): ↑17.62
Urinary PAGN/hippuric acid ratio (male cynomolgus monkeys [5]; 300 mg/kg/day by gavage for 7 days, Pre (pre-dosing period), 1 animal): 1.22
Vacuolated lymphocyte ratio (male cynomolgus monkeys [6]): increase
